Values from PubChem BioAssay AID1259425 (University of Nebraska Medical Center, 2018).
The whole screen tested about 14,000 reagents; below is an unselected part. Not all columns of the deposit are shown. No sequences are given here. Not stated in the record: the time to read-out.

Aim: 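Compare each knockdown with KSR1 silencing using changes in marker transcripts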 (primary screen)
Cell system: HCT116 human colon cancer cells
Reagent: siRNA pool against human genes, 50 nM siRNA
Read-out: 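After 50 nM siRNA pool, branched-DNA assay measures six marker transcripts per well, minus blank, normalised to the geometric mean of two housekeeping transcripts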
Direction: BNIP3L mRNA: higher = more BNIP3L transcript after knockdown

SAP30L: BNIP3L mRNA, set 1 = 0.131
FKBPL: BNIP3L mRNA, set 1 = 0.155
DDX23: BNIP3L mRNA, set 1 = 0.212
CROT: BNIP3L mRNA, set 1 = 0.0605
CNP: BNIP3L mRNA, set 1 = 0.126
NUP50: BNIP3L mRNA, set 1 = 0.0628
BPI: BNIP3L mRNA, set 1 = 0.125
CDK2AP1: BNIP3L mRNA, set 1 = 0.0573
TXNRD2: BNIP3L mRNA, set 1 = 0.0587
CMAS: BNIP3L mRNA, set 1 = 0.135
THBS4: BNIP3L mRNA, set 1 = 0.246
CLDN10: BNIP3L mRNA, set 1 = 0.0557
RPS7: BNIP3L mRNA, set 1 = 0.22
HOXA3: BNIP3L mRNA, set 1 = 0.13
BANK1: BNIP3L mRNA, set 1 = 0.152

Next part, starting with the last 4 of the part before.
CLDN10: BNIP3L mRNA, set 1 = 0.0557
RPS7: BNIP3L mRNA, set 1 = 0.22
HOXA3: BNIP3L mRNA, set 1 = 0.13
BANK1: BNIP3L mRNA, set 1 = 0.152
SLC52A2: BNIP3L mRNA, set 1 = 0.394
NDC80: BNIP3L mRNA, set 1 = 0.145
KRTAP4-12: BNIP3L mRNA, set 1 = 0.116
MICA: BNIP3L mRNA, set 1 = 0.108
SUGP1: BNIP3L mRNA, set 1 = 0.0892
PIGQ: BNIP3L mRNA, set 1 = 0.0664
SOAT2: BNIP3L mRNA, set 1 = 0.11
FCER1G: BNIP3L mRNA, set 1 = 0.0118
GRSF1: BNIP3L mRNA, set 1 = 0.121
AGTPBP1: BNIP3L mRNA, set 1 = 0.0705
MORC3: BNIP3L mRNA, set 1 = 0.103
LAPTM5: BNIP3L mRNA, set 1 = 0.201
CALML5: BNIP3L mRNA, set 1 = 0.0453
